# Experimental data as given in the supplement of paper PMC4635364.
# Counter-ions that a name gives are not always drawn. Some of the results follow. This data set is noisy: repeats of one test often differ as much as different tests do.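 Human fetal ventral-midbrain neural progenitor line ReNCell VM, differentiated without mitogens. Images stained for doublecortin (early neurons) or tyrosine hydroxylase (dopaminergic neurons) were scored by blinded raters against untreated wells (0 = no change). Repeats and both raters were averaged, and compounds averaging 2 or higher were picked as hits for retesting.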
# System: ReNCell VM
# Assay: dopaminergic neuron differentiation score (TH+ cell fraction vs untreated, manual image score) (score (0 to 3)); higher = more TH+ dopaminergic neuron differentiation
# Settings: library: Natural; 2 uM; 4 weeks; BDNF 10 ng/ml + GDNF 10 ng/ml
row,Compound,dopaminergic neuron differentiation score
1,"O=c1c(O)c(Br)ccc2c(Br)c(O)c(O)c(O)c12 [3,6-dibromo-purpurogallin]",inactive: 0
2,CC1(C)CCCC2(C)C1CCC1(C)OC(=O)CC12 (stereo not given) [norambreinolide],inactive: 0
3,"COc1ccc(C=CC(=O)C=Cc2ccc(OC)cc2OC)c(OC)c1 [1,5-bis-(2,4-dimethoxy-phenyl)-penta-1,4-dien-3-one]",inactive: 0

# Same assay, conditions: library: Prestwick; 2 uM; 4 weeks; BDNF 10 ng/ml + GDNF 10 ng/ml
row,Compound,dopaminergic neuron differentiation score
1,CN(C)/N=N/c1[nH]cnc1C(N)=O [Dacarbazine],inactive: 0
2,O=S(=O)(O)c1cc(O)ccc1O [Ethamsylate],inactive: 0
3,CC(=O)OCC1=C(C(=O)O)N2C(=O)[C@@H](NC(=O)Cc3cccs3)[C@H]2SC1 [Cephalothin sodium salt],inactive: 0
4,N[C@@H](Cc1cc(I)c(Oc2ccc(O)c(I)c2)c(I)c1)C(=O)O [Liothyronine],inactive: 0
5,O=C(O)c1ccccc1OP(=O)(O)O [Fosfosal],inactive: 0
6,CNC[C@H](O)[C@@H](O)[C@H](O)[C@H](O)CO [Meglumine],inactive: 0
7,C#C[C@]1(O)CC[C@H]2[C@@H]3CCC4=CC(=O)CC[C@@H]4[C@H]3CC[C@@]21C [Norethindrone],inactive: 0
8,COc1ccc(CCN(C)CCCC(C#N)(c2ccc(OC)c(OC)c2)C(C)C)cc1OC (stereo not given) [Verapamil hydrochloride],inactive: 0

# A second format for some results above:
row | Compound | dopaminergic neuron differentiation score
5 | O=C(O)c1ccccc1OP(=O)(O)O [Fosfosal] | inactive: 0
6 | CNC[C@H](O)[C@@H](O)[C@H](O)[C@H](O)CO [Meglumine] | inactive: 0

# Same assay, conditions: library: Spectrum; 2 uM; 4 weeks; BDNF 10 ng/ml + GDNF 10 ng/ml
row,Compound,dopaminergic neuron differentiation score
1,NNc1nncc2ccccc12,inactive: 0
2,CCCCCCCCCCCCCCCCCCOCC(O)CO (stereo not given),inactive: 0
3,O=C(O)c1cc(=O)c(O)c2c(O)c(O)c(O)cc2c1,inactive: 0
4,CC(C)(S)[C@@H](N)C(=O)O,inactive: 1
5,CC[C@@H]1C(=O)OC[C@@H]1Cc1cncn1C,inactive: 0
6,O=C1c2c(O)cccc2Cc2cccc(O)c21,inactive: 0
7,CC(C)(C)NC[C@H](O)COc1cccc2c1CCCC2=O,inactive: 0
8,CN1C(C(=O)Nc2ccccn2)=C(O)c2sc(Cl)cc2S1(=O)=O,inactive: 0
9,CC(C[N+](C)(C)C)OC(N)=O (stereo not given),inactive: 0
10,COC(=O)[C@@]1(C)CCC[C@]2(C)c3ccc(O)c(C(C)C)c3CCC12 (stereo not given in full),inactive: 0
11,O=[N+]([O-])c1ccc(O)c2ncccc12,inactive: 0
12,c1ccc(CN(CC2=NCCN2)c2ccccc2)cc1,inactive: 0
13,O=C(CCc1ccc(O)cc1)c1c(O)cc(O)cc1O[C@@H]1OC(CO)[C@@H](O)[C@@H](O)C1O (stereo not given in full),inactive: 0
14,CC(=O)O[C@H]1CC[C@]2(C)C3=C(CC[C@H]2C1(C)C)[C@]1(C)CC[C@H]([C@H](C)CCC=C(C)C)[C@@]1(C)CC3,inactive: 0
15,CCN(CC)Cc1cc(Nc2ccnc3cc(Cl)ccc23)ccc1O,inactive: 0
16,Cc1cc(C(C)(C)C)c(O)c(C(C)(C)C)c1,inactive: 0

# Same assay, conditions: library: Tocriscreen; 2 uM; 4 weeks; BDNF 10 ng/ml + GDNF 10 ng/ml
row,Compound,dopaminergic neuron differentiation score
1,CN(Cc1ccccc1)C(=O)[C@H](Cc1ccc2ccccc2c1)NC(=O)[C@@H]1CCCN1C(=O)Nc1ccccc1[N+](=O)[O-],inactive: 0
2,CC(C)NC[C@H](O)COc1ccc(CC(N)=O)cc1 [S-(-)-Atenolol],inactive: 0
3,CCCCn1c(=O)c2[nH]c(C34CC5CC(CC3C5)C4)nc2n(CCCO)c1=O,inactive: 0
